According to PMC5540418:
No constants are given. Whether binding was seen depends on the method and setting. In cells and extracts the contact can be indirect.

Protein sequences, listed by entry. Tags and fused reporters are not part of them. Residues count along the entry.
UniProt Q9Y4K0, residues 26-774: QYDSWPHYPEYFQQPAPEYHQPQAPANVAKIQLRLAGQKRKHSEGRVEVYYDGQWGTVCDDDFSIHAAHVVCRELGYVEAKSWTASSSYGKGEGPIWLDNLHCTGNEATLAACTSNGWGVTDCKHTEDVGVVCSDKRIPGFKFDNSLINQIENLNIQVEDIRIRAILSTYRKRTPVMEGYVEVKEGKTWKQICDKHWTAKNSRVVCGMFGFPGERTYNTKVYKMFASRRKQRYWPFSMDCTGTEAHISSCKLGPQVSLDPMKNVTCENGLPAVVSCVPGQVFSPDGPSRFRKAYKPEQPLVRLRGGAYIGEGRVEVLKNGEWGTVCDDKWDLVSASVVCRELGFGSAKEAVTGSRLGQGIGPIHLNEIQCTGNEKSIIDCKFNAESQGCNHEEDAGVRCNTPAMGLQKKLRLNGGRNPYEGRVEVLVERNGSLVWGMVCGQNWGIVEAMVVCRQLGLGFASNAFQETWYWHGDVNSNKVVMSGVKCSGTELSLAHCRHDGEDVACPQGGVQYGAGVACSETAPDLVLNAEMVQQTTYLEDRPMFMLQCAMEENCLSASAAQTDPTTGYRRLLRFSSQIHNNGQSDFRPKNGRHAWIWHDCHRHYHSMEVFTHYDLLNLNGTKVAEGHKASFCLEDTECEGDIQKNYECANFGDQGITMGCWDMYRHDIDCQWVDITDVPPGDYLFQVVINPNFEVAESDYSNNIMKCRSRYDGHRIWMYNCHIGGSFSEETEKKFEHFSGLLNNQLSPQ
UniProt P48436: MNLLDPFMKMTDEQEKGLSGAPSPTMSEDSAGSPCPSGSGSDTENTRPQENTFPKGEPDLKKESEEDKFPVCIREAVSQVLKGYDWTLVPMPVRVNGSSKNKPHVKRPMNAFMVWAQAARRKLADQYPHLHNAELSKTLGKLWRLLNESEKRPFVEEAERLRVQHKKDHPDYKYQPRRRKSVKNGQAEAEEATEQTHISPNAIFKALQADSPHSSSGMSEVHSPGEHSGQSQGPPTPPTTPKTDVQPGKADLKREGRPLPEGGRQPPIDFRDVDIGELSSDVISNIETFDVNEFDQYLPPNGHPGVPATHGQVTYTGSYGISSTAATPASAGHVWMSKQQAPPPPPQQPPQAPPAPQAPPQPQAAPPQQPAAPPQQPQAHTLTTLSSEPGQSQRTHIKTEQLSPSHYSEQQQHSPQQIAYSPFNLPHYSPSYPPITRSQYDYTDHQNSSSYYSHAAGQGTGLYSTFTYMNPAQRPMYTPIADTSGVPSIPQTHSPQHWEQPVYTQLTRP

Molecular target: Lysyl oxidase like-2 (LOXL2), His-tagged, expressed from adenovirus Ad-CMV-RFP-CMV-hLOXL2-His (human) (UniProt Q9Y4K0)
Assay: pull-down; His-tagged LOXL2 pulled down from lysates of transduced HAC-OA cells (non-denaturing RIPA buffer) on cobalt chelate beads overnight at 4 °C (Pull-Down PolyHis Protein:Protein Interaction Kit); eluates blotted for LOXL2 and SOX9; the text calls it a co-immunoprecipitation assay

binding: no binding
Substance: Sex determining region Y-box containing gene 9 (SOX9) (from UniProt P48436 1-509)
